In publication doi:10.1101/2022.04.06.487280:
No constants are given. Whether binding was seen depends on the method and setting. Binding seen in cells or lysates may run through a third protein. Some results given as binding are weak or reduced against the parent protein; the word gives no strength. Where a sequence is shown, tags or fusion partners need not be part of it.

The chains behind the UniProt entries cited, without tags or fusion partners.
UniProt P09874: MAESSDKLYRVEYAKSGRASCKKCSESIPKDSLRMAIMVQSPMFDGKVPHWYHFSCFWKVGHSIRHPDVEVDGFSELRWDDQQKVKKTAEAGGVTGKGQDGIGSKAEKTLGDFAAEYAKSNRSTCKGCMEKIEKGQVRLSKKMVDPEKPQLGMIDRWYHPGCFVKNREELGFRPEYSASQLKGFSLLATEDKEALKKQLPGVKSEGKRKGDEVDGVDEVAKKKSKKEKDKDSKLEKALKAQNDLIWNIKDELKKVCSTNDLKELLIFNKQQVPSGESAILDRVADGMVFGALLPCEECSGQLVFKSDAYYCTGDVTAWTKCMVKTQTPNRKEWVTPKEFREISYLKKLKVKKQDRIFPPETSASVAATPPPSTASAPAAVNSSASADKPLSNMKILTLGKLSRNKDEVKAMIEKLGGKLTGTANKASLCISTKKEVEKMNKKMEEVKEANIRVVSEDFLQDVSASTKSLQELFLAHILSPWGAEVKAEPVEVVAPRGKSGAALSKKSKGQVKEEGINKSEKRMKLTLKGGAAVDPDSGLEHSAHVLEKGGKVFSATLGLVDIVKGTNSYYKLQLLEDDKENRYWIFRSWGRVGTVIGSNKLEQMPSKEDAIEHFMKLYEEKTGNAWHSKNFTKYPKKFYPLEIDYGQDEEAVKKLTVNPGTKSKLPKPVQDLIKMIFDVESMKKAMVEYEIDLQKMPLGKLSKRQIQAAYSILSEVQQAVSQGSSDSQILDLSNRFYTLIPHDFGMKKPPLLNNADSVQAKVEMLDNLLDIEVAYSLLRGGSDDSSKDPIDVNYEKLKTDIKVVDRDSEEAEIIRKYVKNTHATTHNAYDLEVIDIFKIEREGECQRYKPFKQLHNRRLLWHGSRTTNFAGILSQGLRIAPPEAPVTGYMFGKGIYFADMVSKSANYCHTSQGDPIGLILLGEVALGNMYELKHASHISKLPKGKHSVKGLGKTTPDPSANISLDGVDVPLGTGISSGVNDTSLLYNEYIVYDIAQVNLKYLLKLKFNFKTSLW

Experiments:
Assay in all cases: co-IP
[1] = molecular target: poly (ADP-ribose) polymerase-1 (human (endogenous in SH-SY5Y)) (UniProt P09874)
[2] = molecular target: DX2, splice variant of AIMP2 lacking exon 2, myc-tagged or GFP-tagged, transfected (UniProt Q13155)
[3] = molecular target: T1, aminoacyl-tRNA synthetase interacting multifunctional protein 2, myc-tagged or GFP-tagged, transfected (UniProt Q13155)
T1 sequence: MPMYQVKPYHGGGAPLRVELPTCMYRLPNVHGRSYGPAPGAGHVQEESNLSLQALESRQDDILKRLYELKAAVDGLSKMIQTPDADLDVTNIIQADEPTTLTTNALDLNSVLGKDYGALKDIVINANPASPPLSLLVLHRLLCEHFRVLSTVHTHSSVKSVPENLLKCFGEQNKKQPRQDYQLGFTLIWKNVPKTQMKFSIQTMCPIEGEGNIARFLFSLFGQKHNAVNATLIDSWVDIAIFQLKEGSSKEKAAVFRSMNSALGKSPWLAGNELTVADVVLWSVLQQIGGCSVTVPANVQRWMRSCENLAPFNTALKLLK

[4] = molecular target: T2, aminoacyl-tRNA synthetase interacting multifunctional protein 2, myc-tagged or GFP-tagged, transfected, Q13155; details: remark: other sources report otherwise
T2 chain: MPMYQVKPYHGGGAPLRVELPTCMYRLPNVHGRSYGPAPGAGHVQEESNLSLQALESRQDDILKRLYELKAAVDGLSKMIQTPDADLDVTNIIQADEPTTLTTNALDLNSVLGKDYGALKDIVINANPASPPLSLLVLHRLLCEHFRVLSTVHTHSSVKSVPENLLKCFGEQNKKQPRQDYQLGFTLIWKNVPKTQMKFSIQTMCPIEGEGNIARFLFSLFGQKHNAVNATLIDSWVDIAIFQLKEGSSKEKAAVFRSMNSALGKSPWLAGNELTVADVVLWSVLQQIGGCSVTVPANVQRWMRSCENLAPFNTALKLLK

Binder	binding [1]	binding [2]	binding [3]	binding [4]
DX2, splice variant of AIMP2 lacking exon 2, myc-tagged or GFP-tagged, transfected (protein, UniProt Q13155-2 1-251) MPMYQVKPYHGGGAPLRVELPTCMYRLPNVHGRSYGPAPGAGHVQDYGALKDIVINANPASPPLSLLVLHRLLCEHFRVLSTVHTHSSVKSVPENLLKCFGEQNKKQPRQDYQLGFTLIWKNVPKTQMKFSIQTMCPIEGEGNIARFLFSLFGQKHNAVNATLIDSWVDIAIFQLKEGSSKEKAAVFRSMNSALGKSPWLAGNELTVADVVLWSVLQQIGGCSVTVPANVQRWMRSCENLAPFNTALKLLK	binds	binds weakly	binds	
AIMP2 in SH-SY5Y cells transfected with DX2 vector or DX2 siRNA (protein, UniProt Q13155 1-320) MPMYQVKPYHGGGAPLRVELPTCMYRLPNVHGRSYGPAPGAGHVQEESNLSLQALESRQDDILKRLYELKAAVDGLSKMIQTPDADLDVTNIIQADEPTTLTTNALDLNSVLGKDYGALKDIVINANPASPPLSLLVLHRLLCEHFRVLSTVHTHSSVKSVPENLLKCFGEQNKKQPRQDYQLGFTLIWKNVPKTQMKFSIQTMCPIEGEGNIARFLFSLFGQKHNAVNATLIDSWVDIAIFQLKEGSSKEKAAVFRSMNSALGKSPWLAGNELTVADVVLWSVLQQIGGCSVTVPANVQRWMRSCENLAPFNTALKLLK	binds			

The next lines start with the values.

binding [1]	binding [2]	binding [3]	binding [4]	Binder
binds				aminoacyl-tRNA synthetase interacting multifunctional protein 2, myc-tagged or GFP-tagged, transfected (protein, UniProt Q13155 1-320) MPMYQVKPYHGGGAPLRVELPTCMYRLPNVHGRSYGPAPGAGHVQEESNLSLQALESRQDDILKRLYELKAAVDGLSKMIQTPDADLDVTNIIQADEPTTLTTNALDLNSVLGKDYGALKDIVINANPASPPLSLLVLHRLLCEHFRVLSTVHTHSSVKSVPENLLKCFGEQNKKQPRQDYQLGFTLIWKNVPKTQMKFSIQTMCPIEGEGNIARFLFSLFGQKHNAVNATLIDSWVDIAIFQLKEGSSKEKAAVFRSMNSALGKSPWLAGNELTVADVVLWSVLQQIGGCSVTVPANVQRWMRSCENLAPFNTALKLLK
			binds	aminoacyl-tRNA synthetase interacting multifunctional protein 2, myc-tagged or GFP-tagged, transfected, Q13155 1-320 (protein) MPMYQVKPYHGGGAPLRVELPTCMYRLPNVHGRSYGPAPGAGHVQEESNLSLQALESRQDDILKRLYELKAAVDGLSKMIQTPDADLDVTNIIQADEPTTLTTNALDLNSVLGKDYGALKDIVINANPASPPLSLLVLHRLLCEHFRVLSTVHTHSSVKSVPENLLKCFGEQNKKQPRQDYQLGFTLIWKNVPKTQMKFSIQTMCPIEGEGNIARFLFSLFGQKHNAVNATLIDSWVDIAIFQLKEGSSKEKAAVFRSMNSALGKSPWLAGNELTVADVVLWSVLQQIGGCSVTVPANVQRWMRSCENLAPFNTALKLLK
